Reference: patent publication US20030130166A1, “Polynucleotide encoding a human junctional adhesion protein (JAM2)” (priority 1999, published 2003)
No constants are given. Whether binding was seen depends on the method and setting. Some binding calls cover weakened binding; strength is not graded here. Where a sequence is shown, tags or fusion partners need not be part of it.

Protein sequences, listed by entry. Tags and fused reporters are not part of them. Lines headed by an entry give the natural chain unless they say otherwise; changes in a name come on top.
UniProt P13612: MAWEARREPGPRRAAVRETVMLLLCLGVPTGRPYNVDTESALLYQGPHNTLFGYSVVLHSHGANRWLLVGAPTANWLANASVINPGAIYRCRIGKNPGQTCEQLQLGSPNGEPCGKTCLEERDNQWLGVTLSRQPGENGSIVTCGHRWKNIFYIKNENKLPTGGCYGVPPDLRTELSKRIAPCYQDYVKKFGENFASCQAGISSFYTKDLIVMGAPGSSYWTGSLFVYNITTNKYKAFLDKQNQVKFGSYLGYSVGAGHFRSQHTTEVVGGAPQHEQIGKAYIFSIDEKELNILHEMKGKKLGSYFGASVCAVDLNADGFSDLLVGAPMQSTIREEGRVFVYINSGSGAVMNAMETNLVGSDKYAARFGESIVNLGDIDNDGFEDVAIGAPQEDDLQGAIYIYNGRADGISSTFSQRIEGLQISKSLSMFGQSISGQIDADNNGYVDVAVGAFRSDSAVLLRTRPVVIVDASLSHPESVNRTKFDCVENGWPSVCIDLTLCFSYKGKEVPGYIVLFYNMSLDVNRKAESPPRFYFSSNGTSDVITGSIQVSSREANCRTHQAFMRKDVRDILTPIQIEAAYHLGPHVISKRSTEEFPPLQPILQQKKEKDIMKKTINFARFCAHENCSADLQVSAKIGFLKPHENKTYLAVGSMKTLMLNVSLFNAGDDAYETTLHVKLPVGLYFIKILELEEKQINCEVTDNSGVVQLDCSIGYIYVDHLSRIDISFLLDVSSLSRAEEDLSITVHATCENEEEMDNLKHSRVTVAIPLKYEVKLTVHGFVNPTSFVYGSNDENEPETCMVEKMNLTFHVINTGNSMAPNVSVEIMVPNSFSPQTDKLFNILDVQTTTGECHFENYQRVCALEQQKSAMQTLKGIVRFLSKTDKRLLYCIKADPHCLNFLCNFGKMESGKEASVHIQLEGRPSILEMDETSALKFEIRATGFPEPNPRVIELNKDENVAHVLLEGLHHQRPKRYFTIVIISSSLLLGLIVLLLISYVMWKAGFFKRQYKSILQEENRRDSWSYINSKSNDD

Columns and labels:
[1] = target: T1, human JAM3 (Junctional Adhesion Molecule 3), endogenous on HSB T cells (human) (UniProt Q9BX67); experiment: adhesion of calcein-labelled HSB cells to captured D1 fusion protein (FIG. 10)
T1 sequence (looked up): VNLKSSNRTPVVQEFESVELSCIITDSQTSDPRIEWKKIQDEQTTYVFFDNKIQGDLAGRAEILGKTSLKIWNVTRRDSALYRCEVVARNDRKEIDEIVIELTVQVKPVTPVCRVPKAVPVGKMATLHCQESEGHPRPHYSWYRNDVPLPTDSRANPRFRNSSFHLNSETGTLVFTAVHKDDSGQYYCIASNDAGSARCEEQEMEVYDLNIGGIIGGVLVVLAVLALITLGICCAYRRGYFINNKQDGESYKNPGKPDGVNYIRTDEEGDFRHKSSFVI

[2] = target: α4β1 integrin, endogenous on HSB T cells (UniProt P13612); experiment: adhesion of calcein-labelled HSB cells to captured D1 fusion protein in TBS+Mn (FIG. 10)

B1: secreted fusion protein of JAM2 Ig fold 1 (D1) (Fc fusion, not shown: a dimerising Fc or GST)
chain: FSAPKDQQVVTAVEYQEAILACKTPKKTVSSRLEWKKLGRSVSFVYYQQTLQGDFKNRAEMIDFNIRIKNVTRSDAGKYRCEVSAPSEQGQNLEEDTVTLEV
[1]
  binding: binds
[2]
  binding: binds
